# PubChem BioAssay AID686938, Drosophila RNAi Screening Center | 2013
# Assay: 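Knock-downs reducing store-operated calcium influx in Drosophila cells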 (primary screen)
# Cell system: Drosophila S2R+ cells
# Reagents: long dsRNA against Drosophila genes, about 0.25 µg dsRNA per well, roughly 10,000 cells
# Time to read-out: 5 days of knock-down before the calcium assay
# Challenge: thapsigargin (SERCA pump blocker) to empty calcium stores; entry signal taken 4 min after adding it
# Measurement: 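Duplicate raw fluo-4 intensities per well from a plate reader, at rest and four minutes after thapsigargin emptied calcium stores; entry-to-rest ratio filled for only some wells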
# Direction: calcium entry signal: higher = stronger calcium signal after store depletion; entry to resting ratio: higher = more calcium entry relative to resting level; resting calcium signal: higher = higher resting calcium signal
# Rule for the call: 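Hit if the duplicate-averaged plate z-score for entry over resting signal is under −3; wells with weak total dye signal (Fmax z < −2) or more than 5 off-targets removed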
# Calls: active = strongly reduced calcium entry; inactive = no strong reduction
# In all, the deposit lists about 23,000 reagents; shown is a random part of those with a known target gene and a result. In the full data, 75 (0.33%) are marked active. 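Raw plate signals without normalisation; calls rest on plate z-scores that were not deposited; ratio present for only 364 wells.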 Entries without a mark were called inactive. The numbers tell different reagents against one gene apart. Not stated in the record: the dose of the treatment.
gene,dsRNA no.,"calcium entry signal, replicate 1 (fluorescence units)","calcium entry signal, replicate 2 (fluorescence units)",entry to resting ratio,"resting calcium signal, replicate 1 (fluorescence units)","resting calcium signal, replicate 2 (fluorescence units)"
CG34444,1,2.13e7,3.47e7,,1.11e7,1.39e7
CG7255,1,3.76e7,4.72e7,,1.81e7,3.39e7
CG31388,1,2.66e7,3.16e7,,1.15e7,1.49e7
Wwox (WW domain containing oxidoreductase),1,2.61e7,2.59e7,,1.46e7,1.52e7
Wwox (WW domain containing oxidoreductase),2,3.51e7,4.02e7,,1.97e7,1.70e7
CG3655,1,2.68e7,3.29e7,,1.32e7,1.34e7
CG3655,2,4.45e7,7.16e7,2,2.24e7,2.57e7
CG3655,3,4.05e7,5.82e7,2,2.05e7,2.45e7
CG3655,4,2.42e7,3.53e7,,1.24e7,1.50e7
M1BP (Motif 1 Binding Protein),1,2.98e7,2.73e7,,2.10e7,1.53e7
AOX1 (Aldehyde oxidase 1),1,3.49e7,4.62e7,,1.62e7,2.01e7
"Pp1-Y1 (Protein phosphatase 1, Y-linked 1)",1,4.78e7,3.05e7,,2.17e7,1.48e7
pn (prune),1,2.77e7,3.67e7,,1.32e7,1.73e7
gcm2,1,2.84e7,5.06e7,,1.39e7,2.20e7
Tim9a,1,3.78e7,4.92e7,,1.81e7,2.24e7
CG31115,1,4.60e7,3.74e7,,2.08e7,1.87e7
CG5346,1,3.75e7,3.96e7,,5.24e7,1.73e7
CG17047,1,2.59e7,3.93e7,,1.38e7,1.84e7
CG8237,1,3.59e7,3.89e7,,1.81e7,1.89e7
CG32109,1,2.28e7,3.56e7,,1.22e7,1.51e7
mira (miranda),1,4.05e7,2.72e7,,1.88e7,1.33e7
nop5,1,2.11e7,1.73e7,,1.25e7,1.10e7
Prosalpha7 (Proteasome alpha7 subunit),1,2.35e7,1.90e7,,1.48e7,1.33e7
CG33493,1,2.46e7,2.97e7,,1.26e7,1.31e7

Laid out differently: entries from further up
gene | dsRNA no. | calcium entry signal, replicate 1 (fluorescence units) | calcium entry signal, replicate 2 (fluorescence units) | entry to resting ratio | resting calcium signal, replicate 1 (fluorescence units) | resting calcium signal, replicate 2 (fluorescence units)
CG3655 | 4 | 2.42e7 | 3.53e7 | – | 1.24e7 | 1.50e7
M1BP (Motif 1 Binding Protein) | 1 | 2.98e7 | 2.73e7 | – | 2.10e7 | 1.53e7
AOX1 (Aldehyde oxidase 1) | 1 | 3.49e7 | 4.62e7 | – | 1.62e7 | 2.01e7
